Reference: the supplement of paper PMC10849652
The other results are listed elsewhere or left out.

Chains of the proteins cited; added tags and fusions are not shown. Lines headed by an entry give the natural chain unless they say otherwise; changes in a name come on top.
UniProt P48723: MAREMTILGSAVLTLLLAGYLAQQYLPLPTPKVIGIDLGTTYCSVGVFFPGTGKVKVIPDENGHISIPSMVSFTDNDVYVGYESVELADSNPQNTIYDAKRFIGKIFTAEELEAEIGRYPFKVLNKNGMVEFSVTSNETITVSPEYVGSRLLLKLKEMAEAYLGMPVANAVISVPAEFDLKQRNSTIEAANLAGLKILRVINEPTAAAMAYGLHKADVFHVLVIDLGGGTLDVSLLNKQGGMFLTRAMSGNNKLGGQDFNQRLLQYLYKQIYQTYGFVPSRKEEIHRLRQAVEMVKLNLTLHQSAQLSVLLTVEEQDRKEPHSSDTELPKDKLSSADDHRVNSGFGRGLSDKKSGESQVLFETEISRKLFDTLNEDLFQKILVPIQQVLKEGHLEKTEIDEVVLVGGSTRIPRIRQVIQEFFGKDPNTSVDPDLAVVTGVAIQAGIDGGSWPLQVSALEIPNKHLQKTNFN
UniProt P50135: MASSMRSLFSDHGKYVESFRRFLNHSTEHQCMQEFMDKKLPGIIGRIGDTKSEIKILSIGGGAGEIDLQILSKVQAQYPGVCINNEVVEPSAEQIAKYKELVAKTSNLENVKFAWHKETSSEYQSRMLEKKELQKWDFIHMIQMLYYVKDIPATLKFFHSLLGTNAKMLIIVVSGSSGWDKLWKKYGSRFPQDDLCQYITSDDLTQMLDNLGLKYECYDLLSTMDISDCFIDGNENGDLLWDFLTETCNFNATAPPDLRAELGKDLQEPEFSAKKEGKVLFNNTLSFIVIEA
UniProt O75506: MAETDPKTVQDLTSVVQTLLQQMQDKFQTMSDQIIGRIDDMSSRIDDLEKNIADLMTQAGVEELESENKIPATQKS
UniProt Q96RW7: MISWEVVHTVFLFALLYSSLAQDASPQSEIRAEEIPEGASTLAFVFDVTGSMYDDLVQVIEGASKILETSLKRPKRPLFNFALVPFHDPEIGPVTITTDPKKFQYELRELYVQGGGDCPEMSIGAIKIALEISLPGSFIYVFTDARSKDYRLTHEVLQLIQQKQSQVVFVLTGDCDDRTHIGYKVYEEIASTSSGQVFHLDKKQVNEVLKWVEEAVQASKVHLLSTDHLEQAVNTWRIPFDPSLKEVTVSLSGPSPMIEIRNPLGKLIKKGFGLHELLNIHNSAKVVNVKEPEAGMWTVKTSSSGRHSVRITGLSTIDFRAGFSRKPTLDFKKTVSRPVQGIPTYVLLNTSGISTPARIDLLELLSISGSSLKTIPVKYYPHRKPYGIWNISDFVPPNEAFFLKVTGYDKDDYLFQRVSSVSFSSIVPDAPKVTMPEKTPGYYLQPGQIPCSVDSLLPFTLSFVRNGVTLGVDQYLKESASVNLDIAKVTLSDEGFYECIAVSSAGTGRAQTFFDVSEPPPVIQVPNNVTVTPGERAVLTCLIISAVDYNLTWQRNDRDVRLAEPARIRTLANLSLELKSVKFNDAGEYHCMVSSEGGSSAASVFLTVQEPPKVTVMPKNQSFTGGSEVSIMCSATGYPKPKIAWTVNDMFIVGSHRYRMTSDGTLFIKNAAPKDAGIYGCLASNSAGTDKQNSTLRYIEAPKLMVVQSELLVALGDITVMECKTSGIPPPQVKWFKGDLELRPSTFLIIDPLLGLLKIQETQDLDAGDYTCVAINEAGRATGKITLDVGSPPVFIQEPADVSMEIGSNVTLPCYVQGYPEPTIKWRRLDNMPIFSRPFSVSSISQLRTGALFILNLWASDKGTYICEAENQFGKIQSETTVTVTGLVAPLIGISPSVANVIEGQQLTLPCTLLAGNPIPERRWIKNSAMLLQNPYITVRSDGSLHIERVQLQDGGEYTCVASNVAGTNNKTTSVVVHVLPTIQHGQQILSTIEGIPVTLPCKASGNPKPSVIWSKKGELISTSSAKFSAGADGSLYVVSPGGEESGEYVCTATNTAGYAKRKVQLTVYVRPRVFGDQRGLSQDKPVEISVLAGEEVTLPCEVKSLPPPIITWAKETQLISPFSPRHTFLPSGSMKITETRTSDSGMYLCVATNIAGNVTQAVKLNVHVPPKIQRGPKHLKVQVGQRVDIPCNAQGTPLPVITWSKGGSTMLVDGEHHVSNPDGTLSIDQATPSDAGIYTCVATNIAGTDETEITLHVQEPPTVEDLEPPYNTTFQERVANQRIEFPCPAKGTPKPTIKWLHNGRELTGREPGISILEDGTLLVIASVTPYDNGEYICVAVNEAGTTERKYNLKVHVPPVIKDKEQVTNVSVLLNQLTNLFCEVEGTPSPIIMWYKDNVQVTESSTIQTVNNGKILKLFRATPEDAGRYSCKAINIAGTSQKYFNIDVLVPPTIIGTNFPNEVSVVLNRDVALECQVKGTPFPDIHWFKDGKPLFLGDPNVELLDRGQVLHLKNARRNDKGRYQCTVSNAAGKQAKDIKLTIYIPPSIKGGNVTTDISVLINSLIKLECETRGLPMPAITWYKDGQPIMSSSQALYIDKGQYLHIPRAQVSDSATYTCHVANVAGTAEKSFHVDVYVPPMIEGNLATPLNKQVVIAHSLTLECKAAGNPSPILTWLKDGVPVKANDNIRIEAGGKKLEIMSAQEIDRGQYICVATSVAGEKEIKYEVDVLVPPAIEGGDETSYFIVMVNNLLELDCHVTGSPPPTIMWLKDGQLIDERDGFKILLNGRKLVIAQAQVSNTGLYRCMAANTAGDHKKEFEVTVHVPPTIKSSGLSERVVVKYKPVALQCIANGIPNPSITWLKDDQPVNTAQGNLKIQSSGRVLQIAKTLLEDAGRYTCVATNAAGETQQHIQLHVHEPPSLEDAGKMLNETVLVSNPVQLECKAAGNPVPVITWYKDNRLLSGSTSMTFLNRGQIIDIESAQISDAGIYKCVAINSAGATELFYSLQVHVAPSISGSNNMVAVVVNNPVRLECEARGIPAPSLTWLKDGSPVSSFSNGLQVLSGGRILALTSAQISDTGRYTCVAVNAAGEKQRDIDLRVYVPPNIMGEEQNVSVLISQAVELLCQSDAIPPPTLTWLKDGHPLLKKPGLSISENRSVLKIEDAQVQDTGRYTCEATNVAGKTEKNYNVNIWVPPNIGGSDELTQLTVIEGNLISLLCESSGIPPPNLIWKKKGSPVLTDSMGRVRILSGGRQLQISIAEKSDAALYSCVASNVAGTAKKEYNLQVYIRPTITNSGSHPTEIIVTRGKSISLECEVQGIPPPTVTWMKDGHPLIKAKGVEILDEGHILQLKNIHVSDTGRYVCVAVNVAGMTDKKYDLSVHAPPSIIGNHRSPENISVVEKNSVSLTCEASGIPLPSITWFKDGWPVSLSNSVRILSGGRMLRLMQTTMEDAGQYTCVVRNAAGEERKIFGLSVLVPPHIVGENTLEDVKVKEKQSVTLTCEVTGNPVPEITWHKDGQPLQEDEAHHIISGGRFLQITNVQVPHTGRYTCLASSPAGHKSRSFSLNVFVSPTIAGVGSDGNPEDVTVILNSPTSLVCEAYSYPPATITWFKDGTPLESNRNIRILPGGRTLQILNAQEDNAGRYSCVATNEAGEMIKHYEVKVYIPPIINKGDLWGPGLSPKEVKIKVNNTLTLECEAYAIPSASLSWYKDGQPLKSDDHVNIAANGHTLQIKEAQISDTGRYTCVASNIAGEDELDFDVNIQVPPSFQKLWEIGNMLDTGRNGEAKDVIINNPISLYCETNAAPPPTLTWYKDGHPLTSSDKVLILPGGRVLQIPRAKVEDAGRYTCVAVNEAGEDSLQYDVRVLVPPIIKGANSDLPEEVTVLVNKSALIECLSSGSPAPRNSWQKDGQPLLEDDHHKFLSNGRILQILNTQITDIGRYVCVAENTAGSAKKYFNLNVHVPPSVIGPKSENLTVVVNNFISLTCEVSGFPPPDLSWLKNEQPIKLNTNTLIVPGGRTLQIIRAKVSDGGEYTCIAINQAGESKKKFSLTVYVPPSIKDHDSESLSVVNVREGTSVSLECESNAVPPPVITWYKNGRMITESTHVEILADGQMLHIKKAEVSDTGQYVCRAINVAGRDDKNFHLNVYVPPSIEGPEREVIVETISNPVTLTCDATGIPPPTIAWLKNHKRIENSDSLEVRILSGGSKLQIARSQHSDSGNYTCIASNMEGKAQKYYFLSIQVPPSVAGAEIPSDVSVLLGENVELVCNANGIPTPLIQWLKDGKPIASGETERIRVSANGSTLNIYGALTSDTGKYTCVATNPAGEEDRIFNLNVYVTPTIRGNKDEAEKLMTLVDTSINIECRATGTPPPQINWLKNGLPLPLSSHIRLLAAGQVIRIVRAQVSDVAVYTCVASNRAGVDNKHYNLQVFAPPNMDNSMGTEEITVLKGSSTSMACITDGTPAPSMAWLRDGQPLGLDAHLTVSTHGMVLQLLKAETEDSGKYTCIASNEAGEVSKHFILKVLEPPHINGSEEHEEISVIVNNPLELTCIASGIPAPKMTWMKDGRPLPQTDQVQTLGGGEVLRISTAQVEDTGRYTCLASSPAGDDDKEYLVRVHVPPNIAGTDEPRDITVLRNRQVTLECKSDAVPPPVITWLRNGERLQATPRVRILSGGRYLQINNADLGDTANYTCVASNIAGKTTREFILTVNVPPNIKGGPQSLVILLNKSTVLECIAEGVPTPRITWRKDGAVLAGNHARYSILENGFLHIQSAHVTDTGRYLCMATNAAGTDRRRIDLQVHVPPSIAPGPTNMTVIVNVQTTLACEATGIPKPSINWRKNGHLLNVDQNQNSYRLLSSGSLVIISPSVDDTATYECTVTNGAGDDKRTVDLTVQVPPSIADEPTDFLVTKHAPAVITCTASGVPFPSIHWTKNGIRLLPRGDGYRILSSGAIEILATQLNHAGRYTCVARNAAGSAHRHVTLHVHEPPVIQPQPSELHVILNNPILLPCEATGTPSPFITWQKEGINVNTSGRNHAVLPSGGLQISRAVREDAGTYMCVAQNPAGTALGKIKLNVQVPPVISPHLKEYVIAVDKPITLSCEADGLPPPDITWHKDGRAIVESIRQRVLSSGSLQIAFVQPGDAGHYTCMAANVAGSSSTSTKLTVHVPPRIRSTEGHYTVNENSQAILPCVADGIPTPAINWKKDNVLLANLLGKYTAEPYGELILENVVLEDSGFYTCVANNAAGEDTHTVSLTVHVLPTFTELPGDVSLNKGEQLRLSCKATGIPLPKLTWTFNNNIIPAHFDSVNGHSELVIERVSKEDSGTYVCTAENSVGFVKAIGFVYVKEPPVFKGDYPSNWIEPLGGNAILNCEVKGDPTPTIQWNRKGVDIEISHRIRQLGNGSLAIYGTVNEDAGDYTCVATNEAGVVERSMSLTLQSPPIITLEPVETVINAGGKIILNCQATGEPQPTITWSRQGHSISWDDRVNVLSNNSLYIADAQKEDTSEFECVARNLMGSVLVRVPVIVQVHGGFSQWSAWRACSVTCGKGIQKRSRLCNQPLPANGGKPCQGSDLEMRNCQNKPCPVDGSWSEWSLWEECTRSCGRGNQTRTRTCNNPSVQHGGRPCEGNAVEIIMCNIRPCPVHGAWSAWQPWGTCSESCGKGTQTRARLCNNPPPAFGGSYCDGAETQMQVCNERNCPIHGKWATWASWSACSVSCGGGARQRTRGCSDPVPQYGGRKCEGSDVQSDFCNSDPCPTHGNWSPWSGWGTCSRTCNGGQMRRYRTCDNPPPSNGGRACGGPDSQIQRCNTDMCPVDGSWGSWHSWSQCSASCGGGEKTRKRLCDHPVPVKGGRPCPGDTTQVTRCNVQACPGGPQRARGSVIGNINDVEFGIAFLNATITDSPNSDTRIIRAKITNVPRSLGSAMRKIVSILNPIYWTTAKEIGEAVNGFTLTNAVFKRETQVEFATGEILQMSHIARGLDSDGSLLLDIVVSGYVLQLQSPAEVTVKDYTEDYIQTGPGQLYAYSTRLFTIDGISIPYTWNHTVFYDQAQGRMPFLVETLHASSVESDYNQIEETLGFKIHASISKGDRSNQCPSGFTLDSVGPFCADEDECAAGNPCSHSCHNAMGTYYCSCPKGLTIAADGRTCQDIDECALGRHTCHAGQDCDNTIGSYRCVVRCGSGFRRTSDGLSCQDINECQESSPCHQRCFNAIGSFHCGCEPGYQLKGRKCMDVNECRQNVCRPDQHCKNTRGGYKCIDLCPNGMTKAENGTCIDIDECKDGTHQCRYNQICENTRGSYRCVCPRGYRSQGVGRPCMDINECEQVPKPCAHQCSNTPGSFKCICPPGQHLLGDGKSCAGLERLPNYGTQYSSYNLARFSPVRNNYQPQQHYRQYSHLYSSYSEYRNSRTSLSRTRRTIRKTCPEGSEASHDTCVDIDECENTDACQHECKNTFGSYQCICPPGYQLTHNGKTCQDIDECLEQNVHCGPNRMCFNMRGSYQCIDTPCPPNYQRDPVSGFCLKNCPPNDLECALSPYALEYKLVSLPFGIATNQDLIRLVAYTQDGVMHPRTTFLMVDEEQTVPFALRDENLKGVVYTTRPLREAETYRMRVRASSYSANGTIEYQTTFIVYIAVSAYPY

Assays:
Experiment in all cases: log2 fold change, soluble protein after heating vs DMSO (PISA); higher = thermal stabilisation; K562 lysate, 10 uM; active = over 0.2 and 3.5 SD of the protein, either way, in both replicates (recomputed)
ibrutinib = compound: C=CC(=O)N1CCC[C@@H](n2nc(-c3ccc(Oc4ccccc4)cc3)c3c(N)ncnc32)C1 [ibrutinib]
How it was run: (§1)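 K562 pellets were dounce-homogenised in PBS pH 7.4 containing 1 mM MgCl2, and the crude extract, at 1 mg/mL protein, was exposed to 10 μM compound for 30 min. Aliquots were heated for 3 min across 48°C-58°C, pooled, brought to 0.5% NP-40 at 4°C and spun at 21,000xg for 90 min, with the supernatant taken as soluble protein. TMTpro 16plex LC-MS/MS with equalised channel sums quantified that protein. Values are log-two fold changes in thermal stability relative to solvent controls, taken from duplicates.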

[1] = compound: CC(=O)c1cnc2ccc(-c3cc(Cl)c(O)c(Cl)c3)nc2c1N[C@H]1CC[C@H](CN(C)C)CC1
How it was run: as §1

ralimetinib = compound: CC(C)(C)Cn1c(N)nc2ccc(-c3[nH]c(C(C)(C)C)nc3-c3ccc(F)cc3)nc21 [ralimetinib]
How it was run: as §1

[2] = compound: CC(C)(O)CC(=O)NCCn1ccc2ncnc(Nc3ccc(Oc4cccc(C(F)(F)F)c4)c(Cl)c3)c21
How it was run: as §1

[3] = compound: CC(C)C1=C2N=C(C=C(N2N=C1)NCC3=CC=CC=C3)NCCCCCCN
How it was run: as §1

[4] = compound: CC1=C(C(CC(=O)N1)C2=CC=C(C=C2)C(F)(F)F)C(=O)NC3=C(C=C4C(=C3)C=NN4)F
How it was run: as §1

[5] = compound: CC1=C(C2=C(C=C1)C(=O)C3=CC=CC=C3N2CCCN)C
How it was run: as §1

[6] = compound: CC1=C(C=C(C=C1)NC(=O)C2=CC(=CC=C2)C(C)(C)C#N)NC3=CC4=C(C=C3)N=CN(C4=O)C
How it was run: as §1

[7] = compound: CC1=C(C=C(C=C1)NC(=O)C2=CC(=CC=C2)N(C)C)NC(=O)C3=CC=C(C=C3)O
How it was run: as §1

[8] = compound: CC1=CC=C(C=C1)SC2=C3C=C(SC3=CN=C2)C(=O)N
How it was run: as §1

Measured: log2 fold change

HSPA13 (UniProt P48723)
inactive: ibrutinib 0.007 | [1] 0.009 | ralimetinib 0.041 | [2] 0.003 | [3] -0.039 | [4] 0.028 | [5] 0.007 | [6] -0.027 | [7] 0.03 | [8] 0.013

HSD17B10 (UniProt Q99714)
inactive: ibrutinib -0.012 | [1] -0.018 | ralimetinib 0.004 | [2] -0.003 | [3] 0 | [4] -0.026 | [5] -0.031 | [6] -0.018 | [7] -0.007 | [8] -0.025

HNMT (UniProt P50135)
inactive: ibrutinib 0.058 | [1] 0.126 | [3] 0.018 | [5] -0.151 | [8] -0.058

Reprinted at random: 2 records from the list
HSD17B10 (UniProt Q99714)
inactive: ibrutinib -0.012 | [1] -0.018 | ralimetinib 0.004 | [2] -0.003 | [3] 0 | [4] -0.026 | [5] -0.031 | [6] -0.018 | [7] -0.007 | [8] -0.025

HSPA13 (UniProt P48723)
inactive: ibrutinib 0.007 | [1] 0.009 | ralimetinib 0.041 | [2] 0.003 | [3] -0.039 | [4] 0.028 | [5] 0.007 | [6] -0.027 | [7] 0.03 | [8] 0.013

(list continues)

HNRNPH2 (UniProt P55795)
inactive: ibrutinib 0.017 | [1] 0 | ralimetinib -0.03 | [2] -0.023 | [3] -0.01 | [4] 0.056 | [5] 0.024 | [6] 0.081 | [7] 0.053 | [8] 0.029

HOXB4 (UniProt P17483)
inactive: ibrutinib 0.007 | [1] -0.004 | ralimetinib -0.087 | [2] 0.049 | [4] -0.092 | [5] 0.059 | [6] 0.009 | [7] 0.017 | [8] 0.067

HNRNPL, A0A3B3ITJ4
inactive: ibrutinib 0.033 | [1] 0.033 | [8] -0.104

HSD17B8 (UniProt Q92506)
inactive: ibrutinib 0.025 | [1] 0.037 | ralimetinib -0.01 | [2] -0.047 | [3] -0.028 | [4] -0.056 | [5] -0.016 | [6] -0.013 | [7] -0.09 | [8] -0.002

HPS4 isoform 4 (UniProt Q9NQG7)
inactive: ibrutinib 0.025 | [1] 0.062 | ralimetinib 0.065 | [2] 0 | [3] 0.008 | [5] -0.008 | [6] -0.022 | [7] 0.046 | [8] -0.098

HS1BP3 (UniProt Q53T59)
inactive: ibrutinib -0.01 | [1] 0.001 | ralimetinib 0.017 | [2] 0 | [3] -0.013 | [4] 0.005 | [5] 0.056 | [6] 0.016 | [7] -0.005 | [8] -0.013

HSBP1 (UniProt O75506)
inactive: ibrutinib -0.047 | ralimetinib 0.016 | [2] 0.043 | [3] -0.154 | [5] -0.025 | [7] -0.018

HP1BP3 (UniProt Q5SSJ5)
inactive: ibrutinib 0.036 | [1] -0.013 | ralimetinib 0.013 | [2] -0.043 | [3] -0.023 | [4] 0.013 | [5] -0.043 | [6] -0.016 | [7] -0.004 | [8] -0.002

HMCN1 (UniProt Q96RW7)
inactive: ibrutinib -0.007 | ralimetinib -0.201 | [2] -0.34 | [4] 0.154 | [7] 0.025

HEXIM1 (UniProt O94992)
inactive: ibrutinib -0.009 | [1] 0.026 | ralimetinib 0.004 | [2] -0.047 | [3] -0.077 | [4] 0.035 | [5] -0.064 | [6] -0.012 | [7] -0.019 | [8] -0.018

HERPUD1 (UniProt Q15011)
inactive: ibrutinib -0.097

HNRNPM (UniProt M0QZM1)
inactive: ibrutinib 0.003
